According to patent publication US20230203204A1 (published 2023):
No constants are given. Whether binding was seen depends on the method and setting. Some entries that bind do so weakly or less than the wild type. Tags and fused reporters may be left off the sequences shown.

Target: T1, recombinant human RANKL-murine Fc fusion protein (Sino Biological Inc.) (human) (UniProt O14788)
T1 sequence (looked up): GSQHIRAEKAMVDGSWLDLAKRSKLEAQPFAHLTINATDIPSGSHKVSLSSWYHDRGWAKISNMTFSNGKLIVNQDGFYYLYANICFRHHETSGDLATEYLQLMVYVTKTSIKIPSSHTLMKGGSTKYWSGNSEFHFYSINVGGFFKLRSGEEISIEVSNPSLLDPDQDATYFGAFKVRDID
Assay: ELISA, human RANKL-murine Fc coated

binding: binds
B1: OPG-Fc (Sino Biological Inc.) (Fc fusion, UniProt O00300 22-401, looked up)
chain: ETFPPKYLHYDEETSHQLLCDKCPPGTYLKQHCTAKWKTVCAPCPDHYYTDSWHTSDECLYCSPVCKELQYVKQECNRTHNRVCECKEGRYLEIEFCLKHRSCPPGFGVVQAGTPERNTVCKRCPDGFFSNETSSKAPCRKHTNCSVFGLLLTQKGNATHDNICSGNSESTQKCGIDVTLCEEAFFRFAVPTKFTPNWLSVLVDNLPGTKVNAESVERIKRQHSSQEQTFQLLKLWKHQNKDQDIVKKIIQDIDLCENSVQRHIGHANLTFEQLRSLMESLPGKKVGAEDIEKTIKACKPSDQILKLLSLWRIKNGDQDTLKGLMHALKHSKTYHFPKTVTQSLKKTIRFLHSFTMYKLYQKLFLEMIGNQVQSVKISCL
notes: not shown: Fc part of the bought product
